Measured values published in publication PMC4264191.
These are yes or no findings as the source states them, for the method shown. In cells and extracts the contact can be indirect. Some binding calls cover weakened binding; strength is not graded here.

The chains behind the UniProt entries cited, without tags or fusion partners.
UniProt Q12791: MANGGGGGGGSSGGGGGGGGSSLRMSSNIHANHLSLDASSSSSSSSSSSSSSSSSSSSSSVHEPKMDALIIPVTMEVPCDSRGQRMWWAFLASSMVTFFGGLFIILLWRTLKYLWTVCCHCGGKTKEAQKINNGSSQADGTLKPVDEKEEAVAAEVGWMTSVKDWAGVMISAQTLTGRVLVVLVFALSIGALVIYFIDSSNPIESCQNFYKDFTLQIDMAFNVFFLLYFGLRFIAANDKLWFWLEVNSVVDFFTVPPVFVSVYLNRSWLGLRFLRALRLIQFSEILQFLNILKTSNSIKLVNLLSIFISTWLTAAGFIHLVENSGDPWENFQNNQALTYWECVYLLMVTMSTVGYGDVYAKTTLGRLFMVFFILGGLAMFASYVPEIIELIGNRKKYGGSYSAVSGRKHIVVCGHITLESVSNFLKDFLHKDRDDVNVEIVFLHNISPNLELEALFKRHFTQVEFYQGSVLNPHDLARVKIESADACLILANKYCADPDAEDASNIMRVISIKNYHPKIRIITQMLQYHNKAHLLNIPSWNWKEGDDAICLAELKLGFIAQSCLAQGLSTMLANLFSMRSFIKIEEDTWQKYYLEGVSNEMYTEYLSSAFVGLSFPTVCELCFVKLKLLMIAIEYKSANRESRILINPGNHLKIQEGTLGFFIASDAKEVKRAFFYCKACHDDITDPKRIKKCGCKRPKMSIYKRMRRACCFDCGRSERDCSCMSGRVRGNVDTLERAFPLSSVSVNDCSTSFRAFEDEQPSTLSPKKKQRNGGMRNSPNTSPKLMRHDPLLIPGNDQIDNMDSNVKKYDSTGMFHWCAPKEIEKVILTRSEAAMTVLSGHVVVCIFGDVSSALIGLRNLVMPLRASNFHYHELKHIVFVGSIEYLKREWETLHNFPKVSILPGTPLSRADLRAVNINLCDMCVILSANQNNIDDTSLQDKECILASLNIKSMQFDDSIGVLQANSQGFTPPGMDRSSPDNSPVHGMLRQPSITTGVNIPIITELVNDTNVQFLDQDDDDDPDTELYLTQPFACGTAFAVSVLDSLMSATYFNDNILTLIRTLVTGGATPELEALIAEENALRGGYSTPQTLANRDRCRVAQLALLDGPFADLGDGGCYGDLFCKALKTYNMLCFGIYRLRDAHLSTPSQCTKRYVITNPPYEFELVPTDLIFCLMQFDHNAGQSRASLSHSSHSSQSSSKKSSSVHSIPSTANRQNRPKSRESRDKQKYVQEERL
UniProt Q03135: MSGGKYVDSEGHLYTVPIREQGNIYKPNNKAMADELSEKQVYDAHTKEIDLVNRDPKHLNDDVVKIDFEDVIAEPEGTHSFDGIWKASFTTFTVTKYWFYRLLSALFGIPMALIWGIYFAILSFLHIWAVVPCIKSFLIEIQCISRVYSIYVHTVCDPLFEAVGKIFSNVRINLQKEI

Tests used:
[1] = target: large conductance Ca2+-activated potassium (BKCa) channel, pore-forming alpha-subunit (human (endogenous in MCF-7)) (UniProt Q12791); test: co-IP; endogenous proteins from MCF-7 lysate (150 mM NaCl, 50 mM Tris-HCl, 10 mM HEPES pH 7.4, 0.1% NP-40, 0.25% sodium deoxycholate); 2 μg polyclonal anti-caveolin-1 or anti-BK-α antibody, 4 h, 4 °C, protein-G-Sepharose beads overnight; Western blot
[2] = target: caveolin-1 (human (endogenous in MCF-7)) (UniProt Q03135); test: as above

binding [1] | binding [2] | Substance
binds | – | caveolin-1 (from UniProt Q03135 1-178)
– | binds | large conductance Ca2+-activated potassium (BKCa) channel, pore-forming alpha-subunit (from UniProt Q12791 1-1236)
